The results in this text go back to publication PMC6590293.

Amino acid sequences for entries named in this document (tags omitted). Residues count along the entry.
UniProt P15941, residues 24-1255: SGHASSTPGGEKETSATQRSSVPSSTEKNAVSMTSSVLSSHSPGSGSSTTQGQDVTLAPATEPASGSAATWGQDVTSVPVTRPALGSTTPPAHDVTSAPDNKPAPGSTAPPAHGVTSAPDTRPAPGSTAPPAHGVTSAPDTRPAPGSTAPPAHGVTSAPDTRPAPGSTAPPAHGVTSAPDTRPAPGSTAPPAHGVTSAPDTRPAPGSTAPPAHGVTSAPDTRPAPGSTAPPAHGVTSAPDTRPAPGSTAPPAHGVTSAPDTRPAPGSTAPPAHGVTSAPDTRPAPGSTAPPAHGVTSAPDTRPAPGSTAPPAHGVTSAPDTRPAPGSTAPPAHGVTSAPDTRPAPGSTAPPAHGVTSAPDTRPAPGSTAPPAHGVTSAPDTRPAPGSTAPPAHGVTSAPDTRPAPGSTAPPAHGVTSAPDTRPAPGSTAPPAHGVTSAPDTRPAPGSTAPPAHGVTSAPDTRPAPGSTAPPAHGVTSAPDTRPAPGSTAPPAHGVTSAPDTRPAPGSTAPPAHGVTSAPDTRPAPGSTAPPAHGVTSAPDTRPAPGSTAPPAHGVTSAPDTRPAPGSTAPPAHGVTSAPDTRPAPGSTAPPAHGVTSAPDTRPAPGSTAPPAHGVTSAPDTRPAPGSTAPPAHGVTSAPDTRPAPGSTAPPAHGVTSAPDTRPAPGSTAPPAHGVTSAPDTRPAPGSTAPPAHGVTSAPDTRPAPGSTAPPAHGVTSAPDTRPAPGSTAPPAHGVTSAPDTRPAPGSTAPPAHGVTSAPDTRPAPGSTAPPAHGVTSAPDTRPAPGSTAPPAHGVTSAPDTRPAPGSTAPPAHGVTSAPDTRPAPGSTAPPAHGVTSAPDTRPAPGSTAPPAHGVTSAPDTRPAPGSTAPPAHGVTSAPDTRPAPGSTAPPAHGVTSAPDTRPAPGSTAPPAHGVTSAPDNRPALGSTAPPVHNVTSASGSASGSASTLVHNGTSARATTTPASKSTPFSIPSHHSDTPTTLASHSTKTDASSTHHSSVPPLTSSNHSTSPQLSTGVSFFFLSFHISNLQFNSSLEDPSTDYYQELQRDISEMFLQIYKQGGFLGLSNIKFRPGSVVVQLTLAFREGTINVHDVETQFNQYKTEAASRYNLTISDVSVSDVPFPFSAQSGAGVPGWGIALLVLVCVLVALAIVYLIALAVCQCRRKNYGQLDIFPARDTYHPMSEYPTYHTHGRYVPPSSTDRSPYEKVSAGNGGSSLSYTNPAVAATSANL
UniProt Q13546: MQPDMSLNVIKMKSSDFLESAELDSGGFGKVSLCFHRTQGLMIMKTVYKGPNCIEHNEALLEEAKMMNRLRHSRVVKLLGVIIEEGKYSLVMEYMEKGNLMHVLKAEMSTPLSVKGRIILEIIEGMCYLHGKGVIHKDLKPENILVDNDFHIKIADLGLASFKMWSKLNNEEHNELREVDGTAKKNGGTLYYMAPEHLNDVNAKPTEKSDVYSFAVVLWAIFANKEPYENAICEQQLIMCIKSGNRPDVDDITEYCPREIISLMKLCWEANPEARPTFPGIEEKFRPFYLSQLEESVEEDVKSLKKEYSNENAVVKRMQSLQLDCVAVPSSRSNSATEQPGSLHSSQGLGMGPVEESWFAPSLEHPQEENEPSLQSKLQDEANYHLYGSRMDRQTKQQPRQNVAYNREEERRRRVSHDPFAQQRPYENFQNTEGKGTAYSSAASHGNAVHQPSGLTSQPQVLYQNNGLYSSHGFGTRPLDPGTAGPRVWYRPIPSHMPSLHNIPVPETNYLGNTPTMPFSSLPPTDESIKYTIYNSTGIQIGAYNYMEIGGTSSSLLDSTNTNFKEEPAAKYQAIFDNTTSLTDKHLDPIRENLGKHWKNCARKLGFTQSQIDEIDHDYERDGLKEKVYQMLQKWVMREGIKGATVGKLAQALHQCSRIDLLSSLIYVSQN

These are yes or no findings as the source states them, for the method shown. In cells and extracts the contact can be indirect. Some entries that bind do so weakly or less than the wild type.

The target of this assay is MUC1 (mucin 1) (human (endogenous in 16HBE)) (UniProt P15941). Nature of the assay: co-IP; endogenous proteins in lysates of normal 16HBE cells, with or without TNF-α for 24 hr; lysates incubated overnight at 4°C with antibodies against RIPK1, RIPK3 or MUC1-CT or isotype-matched nonimmune IgG; protein A/G agarose beads, washed five times with lysis buffer; immunoblot. For orientation: Immunoblotting shows a protein as a band on a membrane.

“receptor-interacting protein kinase-1 (RIPK1) (from UniProt Q13546 1-671)”: the binding entry was “binds”.
